PubChem BioAssay AID1159578 | Peter MacCallum Cancer Centre, 2015
Test: 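Genome-wide hunt for genes controlling movement of lymphatic endothelial cells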 (primary screen). Cells: human lymphatic endothelial cells. Knock-down reagent: siRNA pool against human genes, 40 nM. Timing: 48 h after transfection. Measurement: 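Cells stained with dye and imaged after a scratch; covered wound area and nuclei counted, duplicates averaged, migration set against mock wells and turned into a robust z-score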. Direction: migration robust z-score: higher = faster migration into the scratch; migration relative to mock: higher = more scratch area covered than mock; nuclei per well: higher = more cells in the well. Rule for the call: 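Pools averaging fewer than 3300 nuclei are never called; remaining pools count as changed when migration robust z lies outside -2 to 2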. Meaning of the calls: active = migration changed; inactive = no migration change, or too few cells.
The deposit covers about 18,000 reagents; this is an unselected part. Of all reagents, about 1,030 (5.7%) are marked active. 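Inactive calls also include pools with fewer than 3300 nuclei, whose migration was not assessed.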 Raw values vary from plate to plate and are shown uncorrected.

no.	gene symbol	migration robust z-score	migration class with cell-count check	migration relative to mock	nuclei per well, duplicate mean	outcome
1	MRNIP	-2.02	migration z below -2; enough cells	0.36	4150	active
2	NSA2	-1.62	migration z between -2 and 2; enough cells	0.47	4299	inactive
3	PNMA2	0.54	migration z between -2 and 2; enough cells	1.02	6352	inactive
4	CDCP2	0.26	migration z between -2 and 2; enough cells	0.96	4839	inactive
5	LCE1B	-1.7	migration z between -2 and 2; enough cells	0.44	5924	inactive
6	C5AR2	-1.06	migration z between -2 and 2; enough cells	0.6	4481	inactive
7	ANKRD20A2P	0	migration z between -2 and 2; enough cells	0.8	5418	inactive
8	CRYBG1	0.08	migration z between -2 and 2; enough cells	0.9	6208	inactive
9	GPR85	0.36	migration z between -2 and 2; enough cells	0.88	4296	inactive
10	CBR1	-3.04	migration z below -2; enough cells	0.22	3516	active
11	RNF216	-0.72	migration z between -2 and 2; enough cells	0.66	4972	inactive
12	BZW2	1.12	migration z between -2 and 2; enough cells	1.02	5241	inactive
13	FBXO36	-1.45	migration z between -2 and 2; enough cells	0.53	5739	inactive
14	CYB561A3	-0.66	migration z between -2 and 2; enough cells	0.72	5096	inactive
15	ABCD3	0.34	migration z between -2 and 2; enough cells	0.87	6482	inactive
16	SPANXA1	-0.48	migration z between -2 and 2; enough cells	0.76	4692	inactive
17	ZNF630	0.2	migration z between -2 and 2; enough cells	0.94	5256	inactive
18	HBB	0.16	migration z between -2 and 2; enough cells	0.84	6336	inactive
19	ROBO4	0.84	migration z between -2 and 2; enough cells	1.1	7582	inactive
20	ZNF83	0.24	migration z between -2 and 2; enough cells	0.85	6391	inactive
21	VCAM1	0.12	migration z between -2 and 2; enough cells	0.92	6568	inactive
22	ZFPM2	-1.71	migration z between -2 and 2; enough cells	0.48	4909	inactive
23	TUFM	0.26	migration z between -2 and 2; enough cells	0.86	5047	inactive
24	GSTO2	-0.06	migration z between -2 and 2; enough cells	0.8	5820	inactive
25	NFKBIE	-1.84	migration z between -2 and 2; enough cells	0.45	5384	inactive
26	SH3BP1	-0.29	migration z between -2 and 2; enough cells	0.75	5527	inactive
27	DRD3	0.96	migration z between -2 and 2; enough cells	0.99	4420	inactive
28	SPINK13	-0.07	migration z between -2 and 2; enough cells	0.87	5626	inactive
29	EID3	-0.48	migration z between -2 and 2; enough cells	0.76	4854	inactive
30	XPO7	0.5	migration z between -2 and 2; enough cells	1.02	5276	inactive
31	SPATS2	-0.24	migration z between -2 and 2; enough cells	0.82	5090	inactive

Targets above whose gene name begins with R or r (2):
gene symbol	migration robust z-score	migration class with cell-count check	migration relative to mock	nuclei per well, duplicate mean	outcome
RNF216	-0.72	migration z between -2 and 2; enough cells	0.66	4972	inactive
ROBO4	0.84	migration z between -2 and 2; enough cells	1.1	7582	inactive

The list goes on:
no.	gene symbol	migration robust z-score	migration class with cell-count check	migration relative to mock	nuclei per well, duplicate mean	outcome
32	CDK5RAP3	1.97	migration z between -2 and 2; enough cells	1.4	5958	inactive
33	ELOVL5	2.08	migration z above 2; enough cells	1.21	5146	active
34	DEFB106B	-1.6	migration z between -2 and 2; enough cells	0.46	6776	inactive
35	MALL	1.07	migration z between -2 and 2; enough cells	1.17	6616	inactive
36	GZMB	1.94	migration z between -2 and 2; enough cells	1.18	5925	inactive
37	YIF1A	0.13	migration z between -2 and 2; enough cells	0.92	5927	inactive
38	ALDH3A1	-0.11	migration z between -2 and 2; enough cells	0.78	5932	inactive
39	C1orf53	-0.2	migration z between -2 and 2; enough cells	0.83	5544	inactive
40	PLA2G2D	-2.23	migration z below -2; enough cells	0.38	3904	active
41	CHRNE	-0.88	migration z between -2 and 2; enough cells	0.64	5349	inactive
42	PPARGC1B	0.02	migration z between -2 and 2; enough cells	0.89	4988	inactive
43	C17orf58	0.34	migration z between -2 and 2; enough cells	0.98	5988	inactive
44	POPDC3	0.5	migration z between -2 and 2; enough cells	1.02	5974	inactive
45	MAOA	-2.15	migration z below -2; enough cells	0.39	5282	active
46	PRDX6	-0.46	migration z between -2 and 2; enough cells	0.72	3810	inactive
47	NOL3	0.64	migration z between -2 and 2; enough cells	1.05	5372	inactive
48	PIK3C3	-0.13	migration z between -2 and 2; enough cells	0.78	4692	inactive
49	CDC42BPA	-1.14	migration z between -2 and 2; enough cells	0.58	3328	inactive
50	OR4C11	0.25	migration z between -2 and 2; enough cells	0.95	6093	inactive
51	USP9X	0.98	migration z between -2 and 2; enough cells	1	6646	inactive
52	SPON1	0.56	migration z between -2 and 2; enough cells	1.03	5772	inactive
53	OR4C45	-0.09	migration z between -2 and 2; enough cells	0.86	6435	inactive
54	ITGAD	0.99	migration z between -2 and 2; enough cells	1.14	5806	inactive
55	DDX46	-1.64	migration z between -2 and 2; enough cells	0.49	4844	inactive
56	NANS	-1.6	migration z between -2 and 2; enough cells	0.5	5204	inactive
57	APOBEC4	-2.65	migration z below -2; enough cells	0.2	6582	active
